This assay has as its target T1, Myc-tagged Kaiso (UniProt Q86T24).
T1 sequence: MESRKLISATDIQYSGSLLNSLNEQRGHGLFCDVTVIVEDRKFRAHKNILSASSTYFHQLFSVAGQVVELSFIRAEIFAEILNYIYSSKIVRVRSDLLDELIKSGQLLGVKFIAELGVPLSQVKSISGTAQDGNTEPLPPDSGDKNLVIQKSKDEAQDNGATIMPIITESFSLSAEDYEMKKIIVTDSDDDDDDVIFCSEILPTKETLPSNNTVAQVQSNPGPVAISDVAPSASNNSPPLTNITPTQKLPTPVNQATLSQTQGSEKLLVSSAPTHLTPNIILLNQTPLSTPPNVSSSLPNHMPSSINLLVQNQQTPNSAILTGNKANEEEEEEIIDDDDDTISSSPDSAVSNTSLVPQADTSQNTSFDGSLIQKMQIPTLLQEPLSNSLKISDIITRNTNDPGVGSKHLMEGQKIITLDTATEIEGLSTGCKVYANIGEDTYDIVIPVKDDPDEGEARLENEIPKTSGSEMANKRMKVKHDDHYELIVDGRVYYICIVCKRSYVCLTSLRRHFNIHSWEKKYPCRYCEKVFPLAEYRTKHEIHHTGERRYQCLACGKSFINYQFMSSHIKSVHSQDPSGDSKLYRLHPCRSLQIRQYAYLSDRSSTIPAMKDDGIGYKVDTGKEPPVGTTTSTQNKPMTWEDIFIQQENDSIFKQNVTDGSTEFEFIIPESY
Description: co-IP; 293T cells co-transfected with HA-tagged CTNND1 and Myc-tagged Kaiso; immunoprecipitation and subsequent immunoblot.

Results on one molecule are retold here after PMC4872337.

No constants are given. Whether binding was seen depends on the method and setting. Binding seen in cells or lysates may run through a third protein. Some binding calls cover weakened binding; strength is not graded here. Where a sequence is shown, tags or fusion partners need not be part of it.

B1: HA-tagged CTNND1 (protein, UniProt O60716 1-968)
chain: MDDSEVESTASILASVKEQEAQFEKLTRALEEERRHVSAQLERVRVSPQDANPLMANGTLTRRHQNGRFVGDADLERQKFSDLKLNGPQDHSHLLYSTIPRMQEPGQIVETYTEEDPEGAMSVVSVETSDDGTTRRTETTVKKVVKTVTTRTVQPVAMGPDGLPVDASSVSNNYIQTLGRDFRKNGNGGPGPYVGQAGTATLPRNFHYPPDGYSRHYEDGYPGGSDNYGSLSRVTRIEERYRPSMEGYRAPSRQDVYGPQPQVRVGGSSVDLHRFHPEPYGLEDDQRSMGYDDLDYGMMSDYGTARRTGTPSDPRRRLRSYEDMIGEEVPSDQYYWAPLAQHERGSLASLDSLRKGGPPPPNWRQPELPEVIAMLGFRLDAVKSNAAAYLQHLCYRNDKVKTDVRKLKGIPVLVGLLDHPKKEVHLGACGALKNISFGRDQDNKIAIKNCDGVPALVRLLRKARDMDLTEVITGTLWNLSSHDSIKMEIVDHALHALTDEVIIPHSGWEREPNEDCKPRHIEWESVLTNTAGCLRNVSSERSEARRKLRECDGLVDALIFIVQAEIGQKDSDSKLVENCVCLLRNLSYQVHREIPQAERYQEAAPNVANNTGPHAASCFGAKKGKDEWFSRGKKPIEDPANDTVDFPKRTSPARGYELLFQPEVVRIYISLLKESKTPAILEASAGAIQNLCAGRWTYGRYIRSALRQEKALSAIADLLTNEHERVVKAASGALRNLAVDARNKELIGKHAIPNLVKNLPGGQQNSSWNFSEDTVISILNTINEVIAENLEAAKKLRETQGIEKLVLINKSGNRSEKEVRAAALVLQTIWGYKELRKPLEKEGWKKSDFQVNLNNASRSQSSHSYDDSTLPLIDRNQKSDKKPDREEIQMSNMGSNTKSLDNNYSTPNERGDHNRTLDRSGDLGDMEPLKGTTPLMQDEGQESLEEELDVLVLDDEGGQVSYPSMQKI
As to B1, the binding entry is on record as “binds”.
